{"source": "patent US20190256592A1", "binders": {"B1": {"name": "Mouse monoclonal anti-CLPTM1 antibody 7G12 (antibody, V domains shown)", "VH": "QVQLQQSGTELVRPGTSVKVSCKASGYAFTNYLIEWVKQRPGQGLEWIGVINPGSGGTRYNEKFKGKATLTADKSSTTAHMQLSSLTSDDSAVYCARWGGNYSGYAMDYWGQGTSVTVSS", "VL": "QIVLTQSPVIMSASPGEKVTITCSASSSVSYMHWFQQKPGTSPKLWIYSTSNLASGVPARFSGSGSGTSYSLTISRMEAEDAATYYCQQRSSYPPTFGAGTKL"}}, "target": "T1, Cleft Lip and Palate Transmembrane protein 1 (CLPTM1), human, native, in cells (human) (UniProt O96005)", "T1 sequence": "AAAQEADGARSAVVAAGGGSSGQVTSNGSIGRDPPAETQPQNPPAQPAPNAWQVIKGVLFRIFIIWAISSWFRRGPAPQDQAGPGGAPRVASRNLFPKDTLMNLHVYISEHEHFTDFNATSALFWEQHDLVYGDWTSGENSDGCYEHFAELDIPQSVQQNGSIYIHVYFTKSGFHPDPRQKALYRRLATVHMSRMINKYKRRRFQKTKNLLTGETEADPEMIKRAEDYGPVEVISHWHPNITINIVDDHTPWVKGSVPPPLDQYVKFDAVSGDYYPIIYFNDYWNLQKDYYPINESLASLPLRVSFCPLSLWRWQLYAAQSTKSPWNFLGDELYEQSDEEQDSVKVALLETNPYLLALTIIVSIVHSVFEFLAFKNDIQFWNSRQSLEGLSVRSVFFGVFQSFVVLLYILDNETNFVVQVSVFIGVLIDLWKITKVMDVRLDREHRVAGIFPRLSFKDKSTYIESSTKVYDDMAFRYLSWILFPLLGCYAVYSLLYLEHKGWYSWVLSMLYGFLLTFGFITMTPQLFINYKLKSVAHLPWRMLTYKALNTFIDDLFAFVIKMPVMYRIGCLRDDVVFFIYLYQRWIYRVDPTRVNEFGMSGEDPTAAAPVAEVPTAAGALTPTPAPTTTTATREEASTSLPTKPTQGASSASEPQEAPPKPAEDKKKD", "experiment": "flow cytometry on membrane-permeabilised O-876 cells expressing native CLPTM1, 10x dilution series, PE-labelled secondary antibody", "note": "These are yes or no findings as the source states them, for the method shown. Some entries that bind do so weakly or less than the wild type.", "data": [{"binder": "B1", "values": [{"measurement": "binding", "result": "binds"}]}]}
